In the series the target is lysozyme (UniProt P00698). The series can be described thus: binding assay. Conditions: free aptamer, published value; SPR: PBST (10 mM phosphate buffered saline, pH 7.4, 0.01% Tween 20), 25 °C; nanoparticles immobilized on carboxymethyl dextran Au chips, protein 4-64 nM; n = 3; commercial protein; single-stranded DNA.

The values that follow come from publication PMC11905881.

For at least one entry, the source does not settle the construct or the ends of the probe.

“ATCAGGGCTAAAGAGTGCAGAGTTACTTAG [lysozyme aptamer (unmodified)]” yielded a Kd of 31 nM. This counts as double-digit nanomolar.
